Reference: patent US20240067758A1
Results are given in words; binding and its absence hold for the method and conditions named. Some binding calls cover weakened binding; strength is not graded here. Each block holds one binder with its values, some of them ahead of it.

How the values were obtained:
Human IL22 (human) = Human IL22 (human) (UniProt Q9GZX6); experiment: SPR Biacore T200
[1] = molecular target: Cleaved IL22 (IL22 protein after TEV cleavage) (human) (UniProt Q9GZX6); experiment: complex purified by size-exclusion chromatography and crystallised
[2] = molecular target: T1, Cynomolgus IL22 (cynomolgus) (UniProt G7PHZ7); experiment: recombinant cloned Fab, binding retest
T1 sequence: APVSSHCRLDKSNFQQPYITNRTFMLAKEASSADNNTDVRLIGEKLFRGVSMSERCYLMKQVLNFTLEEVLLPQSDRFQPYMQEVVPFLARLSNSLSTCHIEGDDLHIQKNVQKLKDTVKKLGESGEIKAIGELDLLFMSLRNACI

B1: 11041gL13gH14 Fab (as a part of a bispecific antibody) (bispecific antibody, V domains shown)
VH: EVQLVESGGGLVQPGGSLRLSCAVSGFSLSSYAMIWVRQAPGKGLEWIGIIDIEGSTYYASWAKGRFTISRDNSKNTVYLQMNSLRAEDTAVYYCARDRFVGVDIFDPWGQGTLVTVSS
VL: AVQLTQSPSSLSASVGDRVTITCQASEDIYTNLAWYQQKPGKAPKLLIYWASTLASGVPSRFSGSGSGTDFTLTISSLQPEDFATYYCQASVYGNAADSRYTFGGGTKVEIKR
binding (Human IL22 (human)): binds

B2: 11041gL13gH14 Fab (Fab, V domains shown)
VH: B1 VH
VL: B1 VL
binding [1]: binds

Further lines, results first:

binding [2]: binds
B3: Rabbit 11041 Fab (Fab, V domains shown)
VH: QSVEESGGRLVTPGTPLTLTCTVSGFSLSSYAMIWVRQAPGEGLEWIGIIDIDGSTYYASWAKGRFTISRTSTTVDLKITSPTTGDTATYFCARDRFVGVDIFDPWGPGTLVTVSS
VL: AVVLTQTASPVSAPVGGTVTIKCQASEDIYTNLAWYQQKPGQPPKLLIYWASTLASGVPSRFKGSGSGTEFTLTISDLECADAATYYCQACVYGNSADSRYTFGGGTEVVVK

binding [2]: binds
B4: 11070 (Fab, V domains shown)
VH: EVQLQESGPGLVQPSQTLSPTCTVSGFSLTSYSVHWVRQHSGKSLEWMGRMWSDGDTSYNSAFTSRLSITRDTSKSQVFLKMNSLQTEDTGTYYCARSLDFYYDTTLAFWGPGTTVTVSS
VL: DIVMTQTPSNLAASPGESVSINCKASKTISKYLAWYQQKPGKANKLLIYSGSTLQSGTPSRFSGSGSSTDFTLTIRNLEPEDFGLYYCQQHNEYPLTFGSGTKLEIK
